From publication PMC12392934, “TCP19 regulates nitrogen‐dependent sheath blight susceptibility by modulating nitrogen uptake and signalling in rice”
These are yes or no findings as the source states them, for the method shown. A result given as binding can be weak or reduced; the word gives no strength. For some of these results: Tags and fused reporters may be left off the sequences shown. For some of these results: Binding seen in cells or lysates may run through a third protein.

Columns and labels:
[1] = biological target: T1, PIL15-cCFP (rice (Oryza sativa)) (UniProt Q0JNI9); assay: split reporter; BiFC: nYFP and cCFP fusions co-expressed with H2B-mRFP in N. benthamiana leaves by agroinfiltration; confocal microscopy after 36-72 h
T1 sequence: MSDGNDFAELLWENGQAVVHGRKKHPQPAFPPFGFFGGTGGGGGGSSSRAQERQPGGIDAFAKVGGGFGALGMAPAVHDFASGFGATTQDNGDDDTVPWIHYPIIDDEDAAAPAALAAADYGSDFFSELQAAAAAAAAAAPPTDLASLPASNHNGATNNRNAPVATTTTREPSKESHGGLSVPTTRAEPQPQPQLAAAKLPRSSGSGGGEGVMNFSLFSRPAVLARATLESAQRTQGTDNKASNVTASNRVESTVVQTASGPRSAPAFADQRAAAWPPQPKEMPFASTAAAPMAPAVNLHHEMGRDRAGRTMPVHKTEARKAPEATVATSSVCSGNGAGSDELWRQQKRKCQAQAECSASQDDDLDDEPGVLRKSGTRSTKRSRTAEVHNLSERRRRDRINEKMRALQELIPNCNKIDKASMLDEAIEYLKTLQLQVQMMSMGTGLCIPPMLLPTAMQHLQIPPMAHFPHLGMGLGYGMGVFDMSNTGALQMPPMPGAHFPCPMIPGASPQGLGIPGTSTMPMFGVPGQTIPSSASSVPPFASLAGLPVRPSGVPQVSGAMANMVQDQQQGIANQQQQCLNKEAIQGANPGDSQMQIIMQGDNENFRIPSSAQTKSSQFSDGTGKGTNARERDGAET

[2] = biological target: T2, PIL15-3xFLAG (rice (Oryza sativa)) (UniProt Q0JNI9); assay: co-IP; tagged proteins co-expressed in tobacco leaves; total protein (150 mM NaCl, 2.5 mM Tris-HCl, 1 mM EDTA, 10% glycerol, 0.1% NP40) precipitated with anti-GFP or anti-FLAG magnetic beads; western blot
T2 sequence: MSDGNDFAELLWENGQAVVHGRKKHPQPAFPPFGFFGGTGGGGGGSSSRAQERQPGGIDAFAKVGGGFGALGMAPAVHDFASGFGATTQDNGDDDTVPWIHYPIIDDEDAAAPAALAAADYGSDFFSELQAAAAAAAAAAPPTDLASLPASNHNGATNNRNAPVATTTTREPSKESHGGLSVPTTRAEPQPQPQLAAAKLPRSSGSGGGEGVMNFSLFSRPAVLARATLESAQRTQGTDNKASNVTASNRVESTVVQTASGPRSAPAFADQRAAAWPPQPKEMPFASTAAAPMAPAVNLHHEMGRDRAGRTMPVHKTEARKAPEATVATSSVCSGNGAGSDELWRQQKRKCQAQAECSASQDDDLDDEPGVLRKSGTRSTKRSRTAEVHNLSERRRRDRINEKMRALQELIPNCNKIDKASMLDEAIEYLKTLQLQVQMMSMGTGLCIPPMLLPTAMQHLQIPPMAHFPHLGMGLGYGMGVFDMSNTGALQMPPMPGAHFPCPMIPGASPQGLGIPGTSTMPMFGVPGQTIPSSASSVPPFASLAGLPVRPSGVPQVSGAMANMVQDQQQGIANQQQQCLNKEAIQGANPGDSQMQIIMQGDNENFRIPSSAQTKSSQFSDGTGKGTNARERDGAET

[3] = biological target: IDD10-cCFP (rice (Oryza sativa)); assay: split reporter; BiFC: nYFP and cCFP fusions co-expressed with H2B-mRFP in N. benthamiana leaves by agroinfiltration; confocal microscopy after 36-72 h
[4] = biological target: IDD10-FLAG (rice (Oryza sativa)); assay: co-IP; competitive co-IP: IDD10-FLAG with TCP19-GFP or PIL15-GFP in the presence or absence of DEP1-MYC; immunoprecipitation with anti-FLAG antibodies, immunoblot
[5] = biological target: IDD10-GFP (rice (Oryza sativa)); assay: co-IP; tagged proteins co-expressed in tobacco leaves; total protein (150 mM NaCl, 2.5 mM Tris-HCl, 1 mM EDTA, 10% glycerol, 0.1% NP40) precipitated with anti-GFP or anti-FLAG magnetic beads; western blot
[6] = biological target: IDD10-NLUC (rice (Oryza sativa)); assay: split reporter; split firefly luciferase complementation: IDD10-NLUC with CLUC fusions in N. benthamiana leaves, with or without DEP1-GFP; luminescence by CCD camera
[7] = biological target: IDD10 in pBridge MCSI (rice (Oryza sativa)); assay: two-hybrid; yeast three-hybrid: pGADT7 fusions with IDD10 in pBridge MCSI and DEP1 in pBridge MCSII, strain Y2HGold; SD/-Leu-His-Trp and SD/-Leu-Met/-His-Trp
[8] = biological target: IDD10-BD (rice (Oryza sativa)); assay: two-hybrid; pairwise, pGAD424 (AD) and pGBT9 (BD) fusions in yeast strain PJ694A; growth on SD/-Leu-His-Trp

IDD10-nYFP (rice (Oryza sativa))
binding [1]: binds

TCP19-nYFP (rice (Oryza sativa))
binding [1]: binds

TCP19-MYC (rice (Oryza sativa))
binding [2]: binds

IDD10-MYC (rice (Oryza sativa))
binding [2]: binds

B1: DEP1-nYFP (protein, UniProt Q67UU9 1-426)
chain: MGEEAVVMEAPRPKSPPRYPDLCGRRRMQLEVQILSREITFLKDELHFLEGAQPVSRSGCIKEINEFVGTKHDPLIPTKRRRHRSCRLFRWIGSKLCICISCLCYCCKCSPKCKRPRCLNCSCSSCCDEPCCKPNCSACCAGSCCSPDCCSCCKPNCSCCKTPSCCKPNCSCSCPSCSSCCDTSCCKPSCTCFNIFSCFKSLYSCFKIPSCFKSQCNCSSPNCCTCTLPSCSCKGCACPSCGCNGCGCPSCGCNGCGCPSCGCNGCGLPSCGCNGCGSCSCAQCKPDCGSCSTNCCSCKPSCNGCCGEQCCRCADCFSCSCPRCSSCFNIFKCSCAGCCSSLCKCPCTTQCFSCQSSCCKRQPSCCKCQSSCCEGQPSCCEGHCCSLPKPSCPECSCGCVWSCKNCTEGCRCPRCRNPCCLSGCLC
binding [3]: binds

B2: DEP1-MYC (protein, UniProt Q67UU9 1-426)
chain: MGEEAVVMEAPRPKSPPRYPDLCGRRRMQLEVQILSREITFLKDELHFLEGAQPVSRSGCIKEINEFVGTKHDPLIPTKRRRHRSCRLFRWIGSKLCICISCLCYCCKCSPKCKRPRCLNCSCSSCCDEPCCKPNCSACCAGSCCSPDCCSCCKPNCSCCKTPSCCKPNCSCSCPSCSSCCDTSCCKPSCTCFNIFSCFKSLYSCFKIPSCFKSQCNCSSPNCCTCTLPSCSCKGCACPSCGCNGCGCPSCGCNGCGCPSCGCNGCGLPSCGCNGCGSCSCAQCKPDCGSCSTNCCSCKPSCNGCCGEQCCRCADCFSCSCPRCSSCFNIFKCSCAGCCSSLCKCPCTTQCFSCQSSCCKRQPSCCKCQSSCCEGQPSCCEGHCCSLPKPSCPECSCGCVWSCKNCTEGCRCPRCRNPCCLSGCLC
binding [4]: binds | binding [5]: binds

B3: DEP1-GFP (protein, UniProt Q67UU9 1-426)
chain: MGEEAVVMEAPRPKSPPRYPDLCGRRRMQLEVQILSREITFLKDELHFLEGAQPVSRSGCIKEINEFVGTKHDPLIPTKRRRHRSCRLFRWIGSKLCICISCLCYCCKCSPKCKRPRCLNCSCSSCCDEPCCKPNCSACCAGSCCSPDCCSCCKPNCSCCKTPSCCKPNCSCSCPSCSSCCDTSCCKPSCTCFNIFSCFKSLYSCFKIPSCFKSQCNCSSPNCCTCTLPSCSCKGCACPSCGCNGCGCPSCGCNGCGCPSCGCNGCGLPSCGCNGCGSCSCAQCKPDCGSCSTNCCSCKPSCNGCCGEQCCRCADCFSCSCPRCSSCFNIFKCSCAGCCSSLCKCPCTTQCFSCQSSCCKRQPSCCKCQSSCCEGQPSCCEGHCCSLPKPSCPECSCGCVWSCKNCTEGCRCPRCRNPCCLSGCLC
binding [6]: binds

B4: DEP1 in pBridge MCSII (protein, UniProt Q67UU9 1-426)
chain: MGEEAVVMEAPRPKSPPRYPDLCGRRRMQLEVQILSREITFLKDELHFLEGAQPVSRSGCIKEINEFVGTKHDPLIPTKRRRHRSCRLFRWIGSKLCICISCLCYCCKCSPKCKRPRCLNCSCSSCCDEPCCKPNCSACCAGSCCSPDCCSCCKPNCSCCKTPSCCKPNCSCSCPSCSSCCDTSCCKPSCTCFNIFSCFKSLYSCFKIPSCFKSQCNCSSPNCCTCTLPSCSCKGCACPSCGCNGCGCPSCGCNGCGCPSCGCNGCGLPSCGCNGCGSCSCAQCKPDCGSCSTNCCSCKPSCNGCCGEQCCRCADCFSCSCPRCSSCFNIFKCSCAGCCSSLCKCPCTTQCFSCQSSCCKRQPSCCKCQSSCCEGQPSCCEGHCCSLPKPSCPECSCGCVWSCKNCTEGCRCPRCRNPCCLSGCLC
binding [7]: binds

B5: PIL15-pGADT7 (protein, UniProt Q0JNI9 1-637)
chain: MSDGNDFAELLWENGQAVVHGRKKHPQPAFPPFGFFGGTGGGGGGSSSRAQERQPGGIDAFAKVGGGFGALGMAPAVHDFASGFGATTQDNGDDDTVPWIHYPIIDDEDAAAPAALAAADYGSDFFSELQAAAAAAAAAAPPTDLASLPASNHNGATNNRNAPVATTTTREPSKESHGGLSVPTTRAEPQPQPQLAAAKLPRSSGSGGGEGVMNFSLFSRPAVLARATLESAQRTQGTDNKASNVTASNRVESTVVQTASGPRSAPAFADQRAAAWPPQPKEMPFASTAAAPMAPAVNLHHEMGRDRAGRTMPVHKTEARKAPEATVATSSVCSGNGAGSDELWRQQKRKCQAQAECSASQDDDLDDEPGVLRKSGTRSTKRSRTAEVHNLSERRRRDRINEKMRALQELIPNCNKIDKASMLDEAIEYLKTLQLQVQMMSMGTGLCIPPMLLPTAMQHLQIPPMAHFPHLGMGLGYGMGVFDMSNTGALQMPPMPGAHFPCPMIPGASPQGLGIPGTSTMPMFGVPGQTIPSSASSVPPFASLAGLPVRPSGVPQVSGAMANMVQDQQQGIANQQQQCLNKEAIQGANPGDSQMQIIMQGDNENFRIPSSAQTKSSQFSDGTGKGTNARERDGAET
binding [7]: binds

B6: PIL15-CLUC (protein, UniProt Q0JNI9 1-637)
chain: MSDGNDFAELLWENGQAVVHGRKKHPQPAFPPFGFFGGTGGGGGGSSSRAQERQPGGIDAFAKVGGGFGALGMAPAVHDFASGFGATTQDNGDDDTVPWIHYPIIDDEDAAAPAALAAADYGSDFFSELQAAAAAAAAAAPPTDLASLPASNHNGATNNRNAPVATTTTREPSKESHGGLSVPTTRAEPQPQPQLAAAKLPRSSGSGGGEGVMNFSLFSRPAVLARATLESAQRTQGTDNKASNVTASNRVESTVVQTASGPRSAPAFADQRAAAWPPQPKEMPFASTAAAPMAPAVNLHHEMGRDRAGRTMPVHKTEARKAPEATVATSSVCSGNGAGSDELWRQQKRKCQAQAECSASQDDDLDDEPGVLRKSGTRSTKRSRTAEVHNLSERRRRDRINEKMRALQELIPNCNKIDKASMLDEAIEYLKTLQLQVQMMSMGTGLCIPPMLLPTAMQHLQIPPMAHFPHLGMGLGYGMGVFDMSNTGALQMPPMPGAHFPCPMIPGASPQGLGIPGTSTMPMFGVPGQTIPSSASSVPPFASLAGLPVRPSGVPQVSGAMANMVQDQQQGIANQQQQCLNKEAIQGANPGDSQMQIIMQGDNENFRIPSSAQTKSSQFSDGTGKGTNARERDGAET
binding [6]: binds

B7: PIL15-GFP (protein, UniProt Q0JNI9 1-637)
chain: MSDGNDFAELLWENGQAVVHGRKKHPQPAFPPFGFFGGTGGGGGGSSSRAQERQPGGIDAFAKVGGGFGALGMAPAVHDFASGFGATTQDNGDDDTVPWIHYPIIDDEDAAAPAALAAADYGSDFFSELQAAAAAAAAAAPPTDLASLPASNHNGATNNRNAPVATTTTREPSKESHGGLSVPTTRAEPQPQPQLAAAKLPRSSGSGGGEGVMNFSLFSRPAVLARATLESAQRTQGTDNKASNVTASNRVESTVVQTASGPRSAPAFADQRAAAWPPQPKEMPFASTAAAPMAPAVNLHHEMGRDRAGRTMPVHKTEARKAPEATVATSSVCSGNGAGSDELWRQQKRKCQAQAECSASQDDDLDDEPGVLRKSGTRSTKRSRTAEVHNLSERRRRDRINEKMRALQELIPNCNKIDKASMLDEAIEYLKTLQLQVQMMSMGTGLCIPPMLLPTAMQHLQIPPMAHFPHLGMGLGYGMGVFDMSNTGALQMPPMPGAHFPCPMIPGASPQGLGIPGTSTMPMFGVPGQTIPSSASSVPPFASLAGLPVRPSGVPQVSGAMANMVQDQQQGIANQQQQCLNKEAIQGANPGDSQMQIIMQGDNENFRIPSSAQTKSSQFSDGTGKGTNARERDGAET
binding [4]: binds

B8: PIL15-AD (protein, UniProt Q0JNI9 1-637)
chain: MSDGNDFAELLWENGQAVVHGRKKHPQPAFPPFGFFGGTGGGGGGSSSRAQERQPGGIDAFAKVGGGFGALGMAPAVHDFASGFGATTQDNGDDDTVPWIHYPIIDDEDAAAPAALAAADYGSDFFSELQAAAAAAAAAAPPTDLASLPASNHNGATNNRNAPVATTTTREPSKESHGGLSVPTTRAEPQPQPQLAAAKLPRSSGSGGGEGVMNFSLFSRPAVLARATLESAQRTQGTDNKASNVTASNRVESTVVQTASGPRSAPAFADQRAAAWPPQPKEMPFASTAAAPMAPAVNLHHEMGRDRAGRTMPVHKTEARKAPEATVATSSVCSGNGAGSDELWRQQKRKCQAQAECSASQDDDLDDEPGVLRKSGTRSTKRSRTAEVHNLSERRRRDRINEKMRALQELIPNCNKIDKASMLDEAIEYLKTLQLQVQMMSMGTGLCIPPMLLPTAMQHLQIPPMAHFPHLGMGLGYGMGVFDMSNTGALQMPPMPGAHFPCPMIPGASPQGLGIPGTSTMPMFGVPGQTIPSSASSVPPFASLAGLPVRPSGVPQVSGAMANMVQDQQQGIANQQQQCLNKEAIQGANPGDSQMQIIMQGDNENFRIPSSAQTKSSQFSDGTGKGTNARERDGAET
binding [8]: binds
